Values quoted from earlier work as cited in publication PMC3485633 (BMC Pharmacology, 2012).

Target: D2 receptor
Conditions: read-out: Ki D2 receptor; cited from earlier work

Question: Which Ki does the source give for OCCOCCN1CCN(C2=Nc3ccccc3Sc3ccccc32)CC1 [quetiapine] here?
Answer: 680 nM
